The record followed here is patent US12637467B2, “Inhibitor of BTK and mutants thereof” (Newave Pharmaceutical Inc., priority 2019, dated 2026).

Chains of the proteins cited; added tags and fusions are not shown.
UniProt Q06187, whole entry: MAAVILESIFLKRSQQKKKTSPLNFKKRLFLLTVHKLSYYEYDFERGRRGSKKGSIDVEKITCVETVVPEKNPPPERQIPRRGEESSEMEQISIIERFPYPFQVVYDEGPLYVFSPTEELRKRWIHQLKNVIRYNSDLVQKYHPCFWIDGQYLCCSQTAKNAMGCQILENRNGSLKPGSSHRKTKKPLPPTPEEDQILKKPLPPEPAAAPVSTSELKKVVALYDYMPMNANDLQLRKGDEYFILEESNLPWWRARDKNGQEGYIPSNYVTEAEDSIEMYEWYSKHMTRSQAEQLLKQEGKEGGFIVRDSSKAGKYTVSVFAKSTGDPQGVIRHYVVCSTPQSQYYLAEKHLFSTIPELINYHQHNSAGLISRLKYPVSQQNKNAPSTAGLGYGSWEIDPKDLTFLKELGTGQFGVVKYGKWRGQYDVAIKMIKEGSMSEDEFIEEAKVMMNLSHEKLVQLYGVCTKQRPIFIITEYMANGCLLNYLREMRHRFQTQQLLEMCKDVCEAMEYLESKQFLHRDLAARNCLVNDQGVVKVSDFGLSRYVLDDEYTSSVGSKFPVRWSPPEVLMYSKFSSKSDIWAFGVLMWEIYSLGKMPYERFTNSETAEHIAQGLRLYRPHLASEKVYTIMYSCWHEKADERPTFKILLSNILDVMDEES

Structures were worked out from names or drawings and are uncertain.

In the experiment the target is WT BTK (Homo sapiens, UniProt Q06187). Put plainly: In vitro dialysis assay (irreversibility assay), WT BTK. Type of experiment: biochemical. The settings on record: for Recovery after 24 h dialysis: 0.003 mM compound pre-incubated with 2 nM BTK for 2 hr, dialyzed 24 hr against buffer with 40 mM ATP, BTK activity vs non-dialyzed samples; for Conclusion (WT BTK): reversible or irreversible inhibition after 24 hr dialysis.

Regarding `C=CC(=O)Nc1cc(Nc2nc(-c3ccnc(N4CCn5c(cc6c5CC(C)(C)C6)C4=O)c3CO)cn(C)c2=O)ccc1N1CCC(N2CCN(C)CC2)C[C@@H]1C` (stereo partly shown), the “Recovery after 24 h dialysis” value is around 1% and the “Conclusion (WT BTK)” value was “Irreversible/covalent inhibition”.
For the compound `C=CC(=O)Nc1cc(Nc2nc(-c3ccnc(N4CCn5c(cc6c5CC(C)(C)C6)C4=O)c3CO)cn(C)c2=O)ccc1N1CCC(N2CCC(F)(F)CC2)C[C@@H]1C` (stereo partly shown), the “Recovery after 24 h dialysis” value is listed as around 1% and the “Conclusion (WT BTK)” value is “Irreversible/covalent inhibition”.
